Earlier results, collected in patent publication US20230165842A1, “NEW USES” (priority 2020, published 2023).

Tested on: Vero E6 and Calu-3 cells
Settings: approx. 7× the most efficacious antiviral concentration of 300 μM

Question: For `COC(=O)C1=C(C)NC(C)=C(C(=O)OC)C1c1ccccc1[N+](=O)[O-]` [Compound 51, nifedipine], which cytotoxic effect is on record?
Answer: Its cytotoxic effect is “did not show a significant cytotoxic effect”.
